## Binding screen against folded nucleic acids

Targets (5′ to 3′):
SAM-II: SAM-II riboswitch RNA pseudoknot, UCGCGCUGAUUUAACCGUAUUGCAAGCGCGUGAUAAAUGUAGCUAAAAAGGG. About 200 hits among about 21,000 compounds.
TPP: TPP riboswitch RNA three-way junction, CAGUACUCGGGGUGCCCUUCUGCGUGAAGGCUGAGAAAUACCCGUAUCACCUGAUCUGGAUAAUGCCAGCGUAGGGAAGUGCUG. About 160 hits among about 24,000 compounds.
PreQ1: PreQ1 riboswitch RNA pseudoknot, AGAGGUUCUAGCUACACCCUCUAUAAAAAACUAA. From B. subtilis. About 170 hits among about 24,000 compounds.

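The test is a small-molecule microarray: each compound is printed twice on a reactive slide, and binding shows as fluorescence of the labelled oligonucleotide after washing. The data file lists only calls. An earlier report of the laboratory on the PreQ1, TPP and SAM-II riboswitches (doi:10.1038/s41467-019-09493-3) used 1 µM RNA for 2 h and required a mean Z-score above 3 (spot signal-to-noise against the whole library), a score well above that on a control array, and duplicate spots agreeing (coefficient of variation under 100); it then also set aside compounds that hit other targets, which this list keeps. The cut-offs behind this list may differ. These are primary screening calls, not affinities; a compound without a hit may have attached poorly or may still bind in solution.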 Key: hit = hit, none = tested without a hit. This is an unselected part of the compounds tested. A target missing from an entry has no call listed here. A dash means that no call is listed here.

| # | Compound | SAM-II | TPP | PreQ1 |
|---|---|---|---|---|
| 1 | `CC(C)c1ccnc(NCCCN2CCCC(CO)C2)n1` (stereo not shown) | none | none | none |
| 2 | `Nc1nnc(SCc2cccnc2)s1` | none | none | none |
| 3 | `Cc1ccc(C)c2c(O)cc(CNCCN3CCNC3=O)nc12` | none | none | none |
| 4 | `CN(C)c1ccc(Nc2nc(-c3ccccc3)cs2)cc1` | none | none | none |
| 5 | `CCC1(c2ccccc2)C(=O)NCNC1=O` | none | none | none |
| 6 | `Nc1ccsc1C(=O)N1CCc2[nH]nc(-c3ccccc3F)c2C1` | none | none | none |
| 7 | `Nc1nonc1C(=O)NCCNCc1cc(Br)ccc1OCc1ccccc1Cl` | none | none | hit |
| 8 | `CCOC(=O)C1CCN(c2c(NCc3ccc(OC)cc3)c(=O)c2=O)CC1` | none | none | none |
| 9 | `CCOc1cc(CNc2ccc(N3CCOCC3)cc2)ccc1OCc1ccccc1` | none | none | none |
| 10 | `Fc1cccc(CNCCc2c[nH]c3ccccc23)c1` | none | none | none |
| 11 | `Nc1cc(-c2nc3cnccc3o2)ccc1Cl` | - | none | none |
| 12 | `COCCc1nc(-c2cnc(C3CC3)nc2)n(CCO)n1` | none | none | none |
| 13 | `Cc1cc(-c2ccccc2)nc(Nc2nc(C)c3ccccc3n2)n1` | none | none | none |
| 14 | `Cc1cc(Nc2ccccc2F)n2nc(Cc3ccccc3)nc2n1` | - | none | none |
| 15 | `CC(C)Cc1cc(CNC2CCN(CC(C)C)CC2)no1` | none | none | none |
| 16 | `Cc1ccc(-c2ccnc(NCc3c(CO)cnc(C)c3O)n2)c(C)n1` | none | none | none |
| 17 | `Nc1cc(N2C[C@@H]3CC[C@H](C2)N(Cc2ccccc2)C3)nc(N)n1` | none | none | none |
| 18 | `O=C(NCC(O)CO)c1ccc2[nH]c3c(c2c1)CCCC3` (stereo not shown) | none | none | none |
| 19 | `CC(=O)OCc1cc(-c2csc(N)n2)ccc1O` | none | none | none |
| 20 | `Cc1ncc(CO)c(-c2nc3c([nH]2)CC(C)(C)CNC3=O)c1O` | none | none | none |
| 21 | `C[C@@H](NC(=O)c1ncnc(N)c1Cl)c1ncc(C(=O)Nc2cc(C(F)(F)F)c(Cl)cn2)s1` | none | none | none |
| 22 | `Cc1nc(N)nc(N2CCOC(c3ccccc3)C2)c1CCC(=O)O` (stereo not shown) | none | none | none |
| 23 | `C[C@@H](N)c1ccc(C(=O)Nc2ccnc3[nH]ccc23)cc1` | none | none | none |
| 24 | `Cl.OC(COc1ccc(C23CC4CC(CC(C4)C2)C3)cc1)CN1CCOCC1` (stereo not shown) | none | none | none |
| 25 | `Cc1ccccc1CNCc1ccc2c(c1)OCO2` | none | none | none |
| 26 | `C=CCNc1oc(-c2ccc(S(=O)(=O)N(C)C)cc2)nc1C#N` | - | none | none |
| 27 | `CCOC(=O)c1nc(Nc2ccccc2CC)c2ccccc2n1` | none | none | none |
| 28 | `COc1ccc(-c2csc(NCCc3ccc(OC)c(OC)c3)n2)cc1` | none | none | none |
| 29 | `CC(C)C[C@H](NC(=O)[C@H](CCc1ccccc1)NC(=O)CN1CCOCC1)C(=O)N[C@@H](Cc1ccccc1)C(=O)N[C@@H](CC(C)C)C(=O)[C@@]1(C)CO1` | none | none | none |
| 30 | `CCNc1nc(N2CCCC2)nc(-n2cnc(SC)n2)n1` | - | none | none |
| 31 | `OC1(CNCCSc2ccc(Cl)cc2)CNCCOC1` (stereo not shown) | none | none | none |
| 32 | `Cc1ccc2oc(Nc3nc(C)c(C)c(C)n3)nc2c1` | none | none | none |
| 33 | `Cl.Nc1cc2nc3ccccc3nc2cc1N` | none | none | none |
| 34 | `Cc1ccc2c(c1)C(Cc1nc3ccccc3c(=O)n1CCCO)C(=O)N2Cc1ccccc1` (stereo not shown) | - | none | none |
| 35 | `CCOC(=O)N1CCN(c2c(NC3CCCCCC3)c(=O)c2=O)CC1` | - | none | none |
| 36 | `CCN(CC)CCNCc1ccc(-c2ccccc2)o1` | - | none | none |
| 37 | `CCOc1ccc(Nc2oc(C=Cc3ccc(F)cc3)nc2C#N)cc1` | - | none | none |
| 38 | `O=C1N(CC2CCC2)CCCC1(O)CNCc1ccc2c(c1)OCCCO2` (stereo not shown) | none | none | none |
| 39 | `NC(=O)Nc1ccc(Nc2ccccc2)cc1` | none | none | none |
| 40 | `Cc1ccc(C)c2c(O)cc(CNCC(=O)N3CCCC3)nc12` | none | none | none |
| 41 | `Cc1cc(C2CCCCC2)n(O)c(=O)c1` | none | none | none |
| 42 | `COc1cc2c(c(C(c3ccccc3)(c3ccccc3)c3ccccc3)c1)NC(C)(C)C=C2C` | none | none | none |
| 43 | `CNc1nc(N(C)C)nc(-n2cnc(SCc3ccc(Cl)cc3)n2)n1` | - | none | none |
| 44 | `Brc1ccc(-c2ccc(CNc3nc[nH]n3)o2)cc1` | - | none | none |
| 45 | `Cc1n[nH]c(C2CCCN(c3nc(N)nc(C)c3CCC(=O)O)C2)n1` (stereo not shown) | none | none | none |
| 46 | `c1cc(-c2cc(NC3CCCC3)nc3[nH]ccc23)nc(N2CCNCC2)c1` | none | none | none |
| 47 | `Cc1nc2ncnc(N)n2n1` | none | none | none |
| 48 | `O=S1(=O)C[C@H](NCCc2ccccc2)[C@@H](S(=O)(=O)c2ccc(F)cc2)C1` | - | none | none |
| 49 | `COc1ccc(CCNc2ccc3nncn3n2)c(OC)c1` | - | none | none |
| 50 | `O=C(Nc1ccccc1SCc1cccc(Cl)c1)N1CCCNCC1` | none | none | none |

6 of the entries, repeated:

{"compound": "Nc1cc(N2C[C@@H]3CC[C@H](C2)N(Cc2ccccc2)C3)nc(N)n1", "SAM-II": "none", "TPP": "none", "PreQ1": "none"}
{"compound": "CCN(CC)CCNCc1ccc(-c2ccccc2)o1", "TPP": "none", "PreQ1": "none"}
{"compound": "Cc1cc(-c2ccccc2)nc(Nc2nc(C)c3ccccc3n2)n1", "SAM-II": "none", "TPP": "none", "PreQ1": "none"}
{"compound": "Cc1ccc(C)c2c(O)cc(CNCCN3CCNC3=O)nc12", "SAM-II": "none", "TPP": "none", "PreQ1": "none"}
{"compound": "Nc1cc(-c2nc3cnccc3o2)ccc1Cl", "TPP": "none", "PreQ1": "none"}
{"compound": "Cc1ccccc1CNCc1ccc2c(c1)OCO2", "SAM-II": "none", "TPP": "none", "PreQ1": "none"}

Calls as published in the ROBIN set (doi:10.1002/anie.202211358).